# Results from PubChem BioAssay AID651768 (National Center for Advancing Translational Sciences (NCATS), 2012).
# Sequences of proteins named here, by UniProt entry; tags and fusion partners are left off.
# UniProt Q14191, whole entry, looked up: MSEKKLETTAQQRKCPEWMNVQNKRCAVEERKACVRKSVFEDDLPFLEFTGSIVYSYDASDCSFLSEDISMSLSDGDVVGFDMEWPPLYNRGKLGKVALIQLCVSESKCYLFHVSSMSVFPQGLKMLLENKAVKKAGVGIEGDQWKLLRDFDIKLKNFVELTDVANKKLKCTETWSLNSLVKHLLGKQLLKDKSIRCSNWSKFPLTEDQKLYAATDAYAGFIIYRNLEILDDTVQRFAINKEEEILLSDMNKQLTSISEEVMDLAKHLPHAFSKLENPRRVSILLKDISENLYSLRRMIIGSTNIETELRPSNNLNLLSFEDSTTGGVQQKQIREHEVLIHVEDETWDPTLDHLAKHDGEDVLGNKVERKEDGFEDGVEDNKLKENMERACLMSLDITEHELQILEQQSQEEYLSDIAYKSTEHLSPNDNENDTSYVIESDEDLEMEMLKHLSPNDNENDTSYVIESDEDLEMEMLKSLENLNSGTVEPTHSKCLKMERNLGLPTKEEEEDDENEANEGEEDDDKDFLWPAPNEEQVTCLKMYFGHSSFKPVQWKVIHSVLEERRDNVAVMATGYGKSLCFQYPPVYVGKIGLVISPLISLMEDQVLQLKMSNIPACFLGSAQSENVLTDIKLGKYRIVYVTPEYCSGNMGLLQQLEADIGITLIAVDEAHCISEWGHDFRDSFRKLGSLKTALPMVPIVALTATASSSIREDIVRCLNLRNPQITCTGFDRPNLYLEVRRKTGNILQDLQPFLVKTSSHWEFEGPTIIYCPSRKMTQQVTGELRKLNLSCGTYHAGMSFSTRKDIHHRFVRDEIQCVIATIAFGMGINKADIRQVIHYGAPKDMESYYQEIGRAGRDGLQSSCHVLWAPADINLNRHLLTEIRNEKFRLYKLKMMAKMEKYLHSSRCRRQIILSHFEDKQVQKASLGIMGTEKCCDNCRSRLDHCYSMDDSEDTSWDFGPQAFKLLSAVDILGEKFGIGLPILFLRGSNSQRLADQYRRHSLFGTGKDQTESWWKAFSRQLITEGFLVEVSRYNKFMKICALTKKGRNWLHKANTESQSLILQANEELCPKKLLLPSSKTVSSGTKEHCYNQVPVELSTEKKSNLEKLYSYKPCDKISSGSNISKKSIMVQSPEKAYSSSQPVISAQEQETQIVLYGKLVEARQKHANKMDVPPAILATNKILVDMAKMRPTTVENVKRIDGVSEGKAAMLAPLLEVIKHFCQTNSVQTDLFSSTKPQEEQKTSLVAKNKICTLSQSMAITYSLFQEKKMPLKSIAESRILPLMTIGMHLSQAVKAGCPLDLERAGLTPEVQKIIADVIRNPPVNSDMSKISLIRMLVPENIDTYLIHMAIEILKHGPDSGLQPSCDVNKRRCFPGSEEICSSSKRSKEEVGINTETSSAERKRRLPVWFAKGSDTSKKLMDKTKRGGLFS
# Out of some 360,000 compounds screened, about 1,700 (0.47%) were called active. The shares of active, inactive and inconclusive entries below differ from those in the screen. Calls follow the shape of the dose curve; as a rule, active = well fitted inhibition curve with a large enough effect; inconclusive = small, poorly fitted or top-dose-only effect; inactive = no such curve, though single readings can be large or run the other way. A potency beside an inconclusive call is a rough fit, not a confirmed value.
# Target: Bifunctional 3'-5' exonuclease/ATP-dependent helicase WRN (Homo sapiens) (UniProt Q14191)
# Assay: qHTS for Inhibitors of WRN Helicase; also: nearly all actives have a fitted effect of over 55% in size
# Conditions: WRN helicase unwinding, fluorescent forked duplex, kinetic; activity change, negative = inhibition: at 114 µM (top of the series) unless noted
# Summary of the method: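 WRN at 20 nM final was preincubated with compound for 15 min at room temperature; reaction started with 100 nM forked duplex oligonucleotide carrying fluorophore and quencher plus 2 mM ATP (final). Unwinding followed kinetically by red fluorescence (ex 525/em 598 nm).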
# % is scaled to controls: 0 for no effect and ±100 for the full control effect; potency is read from the fitted curve at half-maximal effect.
SMILES,Potency,"activity change, negative = inhibition"
O=c1c2ccccc2nc2ccc(NCc3ccco3)nn12,"inconclusive: 44.7 µM [inhibitor, partial curve]",
CC1=C(C(=O)OC(C)C)[C@@H](c2ccc(C)o2)NC(=O)N1,"inconclusive: 39.8 µM [inhibitor, partial curve, poor fit]",
CC1CN(C(=O)CSc2cn(CC(=O)N3CCOCC3)c3ccccc23)CC(C)O1 (configuration not stated),inactive,
CC(C)C(NC(=O)OCc1ccccc1)C(=O)OCC(=O)NCc1ccco1 (configuration not stated),"inconclusive: 56.2 µM [inhibitor, partial curve]",
O=C(CCN1CCN(c2ccccc2)CC1)N/N=C/c1ccc(O)c(O)c1O,active: 39.8 µM,
CC(C)c1ccc(CCNC(=O)CSC(=S)N2CCCC2)cc1,"inconclusive: 39.8 µM [inhibitor, full curve, poor fit]",
O=C1NC(=S)SC1=Cc1ccc(Cl)cc1,,inconclusive: -36.4% [inhibitor]
CSCCC(NC(=O)c1cccc(C)c1)C(=O)OCN1C(=O)c2ccccc2C1=O (configuration not stated),inactive,
Cc1ccc(NC(=O)CN2C(=O)S/C(=C/c3ccc(O)c([N+](=O)[O-])c3)C2=O)cc1C,active: 79.4 µM,
COc1ccc2c(c1)-c1nc(/N=C/c3c(O)ccc4ccccc34)sc1CC2,"inconclusive: 89.1 µM [inhibitor, partial curve]",
COCCCNc1nc(N)c([N+](=O)[O-])c(Nc2cc(OC)ccc2OC)n1,inactive,
C=CCn1c(SCC(=O)NCCCC)nc2scc(-c3ccco3)c2c1=O,"inconclusive: 39.8 µM [inhibitor, partial curve]",
O=C(CCl)c1cc2c3c(c1)CC(=O)N3CCC2,inactive,
CCSc1nnc2ccc(-c3ccc(OC)c(OC)c3)nn12,"inconclusive: 28.2 µM [inhibitor, single point]",
Cn1c(Cn2nnc3ccccc32)nnc1SCC(=O)N1c2ccccc2Sc2ccccc21,inactive,
Cc1ccc(S(=O)(=O)N2CCCN(C)c3nc4ccccc4nc32)cc1,"inconclusive: 8.91 µM [inhibitor, partial curve, poor fit]",
CC1(c2ccc(Cl)cc2)NC(=O)N(CC(=O)c2ccc3c(c2)OCO3)C1=O (configuration not stated),"inconclusive: 79.4 µM [inhibitor, single point]",
CCOCC(=O)Nc1nnc(Cc2ccc(OC)c(OC)c2)s1,inactive,
Cc1nn(CC(=O)NCc2ccccc2)c(=O)c2cccn12,inactive,
O=C1Nc2ccccc2C1=Nc1ccc(S(=O)(=O)Nc2nccs2)cc1,active: 20 µM,
Nc1nnc(CC(=O)N/N=C/c2cc([N+](=O)[O-])cc(Br)c2O)s1,active: 56.2 µM,
O=C(/C=C/c1ccccc1)Nc1nnc(SCC(=O)c2ccc3ccccc3c2)s1,"inconclusive: 11.2 µM [inhibitor, partial curve]",
Nc1c(C(=O)Nc2ccc(Cl)c(C(=O)O)c2)sc2nc3c(cc12)CCCC3,"inconclusive: 22.4 µM [inhibitor, partial curve]",
COc1ccc(NS(=O)(=O)c2cccc(C(=O)N/N=C/c3ccc(O)cc3)c2)cc1,"inconclusive: 44.7 µM [inhibitor, partial curve]",

SMILES,Potency,"activity change, negative = inhibition"
Cc1cccc(C(=O)OCC(=O)Nc2ccc(F)cc2)c1,"inconclusive: 89.1 µM [inhibitor, single point]",
Cn1cccc1/C=C1\SC(=S)N(NC(=O)c2ccccc2O)C1=O,"inconclusive: 79.4 µM [inhibitor, partial curve]",
O=c1c2ccccc2nc(COc2ccccc2)n1/N=C/c1ccc(O)c(O)c1,"inconclusive: 39.8 µM [inhibitor, partial curve]",
CN(C)c1nc(Nc2ccc(Cl)c(Cl)c2)nc(N(C)C)n1,active: 79.4 µM,
CCn1c(CSc2nc3ccccc3s2)nnc1SCC(=O)c1ccc(Cl)cc1,active: 79.4 µM,
COc1cc(C2c3c([nH]c(=O)[nH]c3=O)Nc3ccc4ccccc4c32)ccc1O (configuration not stated),"inconclusive: 89.1 µM [inhibitor, single point]",
CN(C)CC(C(=O)c1ccccc1)c1ccccc1 (configuration not stated),"inconclusive: 56.2 µM [inhibitor, partial curve]",
Cc1ccc(C(=O)O)cc1-c1ccc(/C=C2/NC(=O)N(c3ccccc3)C2=O)o1,active: 39.8 µM,
N#Cc1c(NC(=O)c2ccco2)sc2c1CCC2,"inconclusive: 39.8 µM [inhibitor, partial curve]",
c1ccc(CNc2c3ccccc3nc3ccccc23)cc1,"inconclusive: 31.6 µM [inhibitor, full curve]",
O=C(Nc1ccccc1)c1nnsc1S(=O)(=O)c1ccc(Cl)cc1,active: 44.7 µM,
COC(=O)C1=C(O)/C(=C\c2ccc(CNS(=O)(=O)c3ccccc3)o2)N=C1C,"inconclusive: 50.1 µM [inhibitor, partial curve]",
CCOc1ccc(S(=O)(=O)Nc2cc(SCC(=O)O)c(O)c3ccccc23)cc1,active: 79.4 µM,
CCCN1C(=S)SC(C)(C)C1/[N+]([O-])=C/c1cccnc1 (configuration not stated),inactive,
COc1ccc2cc3cc(C(=O)NCc4ccco4)oc3nc2c1,"inconclusive: 50.1 µM [inhibitor, partial curve]",
Cc1ccc(CNC(=O)CCS(=O)(=O)c2ccc(Br)cc2)cc1,active: 25.1 µM,
Cc1ccc(-c2csc(NS(=O)(=O)c3cccc(F)c3)n2)o1,active: 31.6 µM,
CCCCN(C(=O)CN(C)CC(=O)Nc1cccc(OC)c1)c1c(N)n(CCCC)c(=O)[nH]c1=O,inactive,
O=C1/C(=C\c2ccc(O)c(O)c2)SC(=S)N1Cc1ccccc1,active: 11.2 µM,
O=C(c1cc(Cl)nc2ccccc12)N(Cc1nnc(-c2ccccc2Cl)o1)C1CC1,"inconclusive: 35.5 µM [inhibitor, single point]",
O=C(N/N=C/c1ccc(N2CCCCC2)o1)c1ccccc1[N+](=O)[O-],"inconclusive: 79.4 µM [inhibitor, partial curve]",
CCC(C)C(NC(=O)/C(=C\c1ccccc1)NC(=O)c1ccc(OC)cc1)C(=O)O (configuration not stated),inactive,
CCOC(=O)COc1cc(-n2c(=S)[nH]c3cc(OC)c(OC)cc3c2=O)c(Cl)cc1Cl,"inconclusive: 22.4 µM [inhibitor, single point]",
